Reference: article PMC7337906

What was measured:
Assay in all cases: native gel or EMSA; native PAGE; proteins at 5 μM in HBS-200 with an additional 10% glycerol, 30 min on ice; 6% polyacrylamide, tris-glycine, run 2 h, Coomassie stained; both purified
[1] = target: Tof1–Csm3 with Tof1 K51C (Chaetomium thermophilum)
[2] = target: Tof1(1–900)ΔL1,3–Csm3 (Chaetomium thermophilum)
[3] = target: Tof1–Csm3 Basic Patch-mutated 1 (BP1; Tof1 K50A/R54A/R98A/R173A) (Chaetomium thermophilum)

binding [1] | binding [2] | binding [3] | Binder
binds | binds | no binding (tested: 5 μM) | Mrc1-mid (maltose binding protein-fused Mrc1 401–800) (domain or fragment, UniProt P25588 401-800) KCITLDLDSDSDEYGDDDMDSIKLSKDESVLPISQLSKATILNLKARLSKQNQKLSQRPNKSKDPKVDHNVLLNTLRKASRKQILDHQKEVIETKGLKLEDMAKEKEIVENLLEQEILRNKRIRQKEKRREKLEENDFQLNAHDSGSDSGSESSGFALSGNEIADYESSGSENDNRRESDSEKEDDEIILKQKKSHHVKHIINESDSDTEVEAKPKEKADESLPKRIAINLGHYGDNIGEDTDKFQETNVLDTQNIEEVMAERNTIENEVKDDVYVNEEADEAIRRQLIDKEKLQLKQKEKEHEAKIKELKKRGVTNFFEMEAEESEDEWHGIGGADGEGSDDYDSDLEKMIDDYSKNNFNPHEIREMLAAENKEMDIKMINKILYDIKNGGFRNKRAKN
– | no binding (tested: 5 μM) | – | Mrc1-N (maltose binding protein-fused Mrc1 1–400) (domain or fragment, UniProt P25588 1-400) MDDALHALSSLTAKKRTTTYKKVAVPILDENDNTNGNGPNDIDNPPELTGNGFLFANATLNRVKNRLEGKKAPEQNHNNGKDRSENSLPTQLISNLYDGGEELEKSEVKDNSYSEKNVSSSFTQTQRIPVSIQQDKVFNVPIHSVNDGKPTQLIKEDGLVNETSQALKTPLTTGRPGATQRIDSSGATSQTQPIKSIEPQSQIITTSSNHSNALSPKIPIIPTELIGTSPLFQSIQNRGPDTQMDVPPQTAHDEDKTQAIGIPQATHQEQKTQIDTVAQTLQDEVPHTLKIREIQSELASEDSKREKARNVEYKKPQKPIPTKKFFSKESFLADFDDSSSNEDDDIKLENAHPKPVQNDDELHENKSVELNLTDETRINEKRVPLLSSYANNLKREIDSS
– | no binding (tested: 5 μM) | – | Mrc1-C (maltose binding protein-fused Mrc1 801–1096) (domain or fragment, UniProt P25588 801-1096) SLELELSDDDEDDVLQQYRLKRRELMRKRRLEIGDDAKLVKNPKSSAFFESMVEDIIEYKNPFGAEEEYNLDITSTATDLDTQDNSINVGDNTGNNEQKPVDQKNKKVIISEDFVQKSLSFLKSNNYEDFETDKELSRIQHGNDEAIEDLYTLKQNSSIKSFTNSQTDSTTSKTVNTIIDLEKRPEDEDEVENGDTSLVGVFKHPSIIKSFASRTDINDKFKEGNKTVKILKSYKTVGSSKASITYMGKTRKLIAPKRKTEGSHRYHHDHHNKKMKMKTKTKSNKLFESGQDSFDN

No constants are given. Whether binding was seen depends on the method and setting. For some assays here: Binding can be weak; no strength is given. Sequences can lack the tags named with a protein.
